# Measured values as given in PubChem BioAssay AID2685 (National Center for Advancing Translational Sciences (NCATS), 2010).
# The list shows a part of the results. The main result of the screen is listed elsewhere. These columns were measured beside it and carry no call. The list favours compounds with an active or inconclusive main result. Potencies come from curve fits of mixed quality, noted in brackets.
# Assay: qHTS Assay for Lipid Storage Modulators in Drosophila S3 Cells;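 as to cell number change: cells counted by Cell Tracker Red CMTPX staining in the red channel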
# Conditions: BODIPY lipid droplet fluorescence, 18-24 h; for cell number change: measured here: cell count max response, cells fed with added oleic acid
# Outline: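 Drosophila S3 cells loaded with oleic acid (400 uM, as added) and compounds at several concentrations; lipid droplets imaged by 488-nm laser-scanning cytometry, 500–530 nm intensity and object ratio to cell channel. Percent activity normalized to 20 uM Triacsin C.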
# [1] = measured here: cell number channel AC50, cells fed with added oleic acid
# [2] = measured here: lipid fluorescence (Fed channel) AC50, cells fed with added oleic acid
SMILES,cell number change [%],AC50 [1],AC50 [2]
CCC/C=N/NC(=O)c1ccc(F)cc1,-1.76,"0.231 µM [falling, single point]",
O=Cc1s/c(=N\S(=O)(=O)c2ccccc2)n(CCCCl)c1Cl,-47.2,"32.6 µM [falling, single point]","29.1 µM [falling, single point]"
COCCCNC(=O)/C(C#N)=C/c1c(N2CCN(C)CC2)nc2c(C)cccn2c1=O,4.26,,
N#C/C(=C\c1ccc(C(=O)O)cc1)S(=O)(=O)c1cc(Br)ccc1Br,-38,"18.4 µM [falling, single point]","29.1 µM [falling, single point]"
COc1ccc(-c2nc(-c3ccccn3)ncc2S(C)(=O)=O)cc1,8.47,,
O=C(NC(=S)Nc1ccc(N2CCOCC2)cc1)c1cccc(Cl)c1,1.9,,"6.51 µM [rising, single point]"
COc1ccc(Br)cc1/C=N/NC(=O)c1cc(OC)c(OC)c(OC)c1,28.4,"4.11 µM [rising, full curve, poor fit]","5.8 µM [rising, full curve]"
O=[N+]([O-])c1ccc(N=Cc2c(O)ccc3ccccc23)cc1,-6.25,,
COc1ccc(Br)cc1/C=N/NC(=O)c1cccnc1,-14.7,,"6.51 µM [falling, single point]"
O=c1oc(-c2ccc(F)cc2)nc2ccsc12,-5.06,,"20.6 µM [falling, partial curve]"
Cc1ccc(S(=O)(=O)CCC(=O)Nc2cccc(S(=O)(=O)N3CCCCCC3)c2)cc1,-4.85,,"0.0651 µM [rising, full curve, poor fit]"
COc1cnn(-c2ccc(C)cc2)c(=O)c1Br,-36.9,"11.6 µM [falling, single point]",
COc1cc(S(=O)(=O)n2ccnc2)ccc1Br,-29.8,,"11.6 µM [falling, partial curve, poor fit]"
O=C1c2ccccc2C(=O)N1CCC#Cc1ccc2cc(CCO)oc(=O)c2c1,-34.9,"29.1 µM [falling, single point]","0.00461 µM [rising, full curve, poor fit]"
Cc1nn(-c2ccccc2)c(=O)c2ccccc12,-28.7,"0.103 µM [rising, full curve, poor fit]",
CCOC(=O)N1CCN(Cc2nc3c(c(=O)[nH]c(=O)n3C)n2Cc2cc(C)ccc2C)CC1,,"1.84 µM [rising, partial curve]","0.461 µM [rising, partial curve, poor fit]"
CCOc1ccc2nc(Cl)c(C3CC(c4ccccc4)=NN3C(=O)c3ccco3)cc2c1 (stereo not given),-83.3,"0.146 µM [falling, full curve]",
O=C(Cn1cnc2sc(-c3ccccc3)cc2c1=O)NCCc1ccccc1,87.5,"23.1 µM [rising, single point]",
O=C(NCCCN1CCOCC1)c1ccc2c(=O)n(-c3ccc(F)c(Cl)c3)c(=S)[nH]c2c1,25,,"20.6 µM [rising, partial curve, poor fit]"
CCN(c1cccc(C)c1)S(=O)(=O)c1ccc2c(c1)NC(=O)CCS2,4.2,,"29.1 µM [falling, single point]"

SMILES,cell number change [%],AC50 [1],AC50 [2]
CO[C@H]1C=CO[C@@]2(C)Oc3c(C)c(O)c4c(O)c(c(C=NN5CCN(C6CCCC6)CC5)c(O)c4c3C2=O)NC(=O)C(C)=CC=C[C@H](C)[C@H](O)[C@@H](C)[C@@H](O)[C@@H](C)[C@H](OC(C)=O)[C@@H]1C,-37,"29.1 µM [falling, single point]","7.31 µM [falling, single point]"
COc1ccc(CNC(=O)Nc2cccc3ccccc23)cc1,-2.92,,"1.46 µM [rising, partial curve, poor fit]"
Cc1ccc(-c2cccc(CN3CCN(C4CCN(C(C)C)CC4)C(CCO)C3)c2)o1 (stereo not given),-7.76,,"1.03 µM [falling, full curve]"
COc1cccc(CN2CCCCC2C(=O)O)c1 (stereo not given),,"0.326 µM [falling, full curve]","4.61 µM [falling, partial curve, poor fit]"
CCCCN1C(=O)C(=O)N(CC(=O)c2ccc[nH]2)C1=O,11.1,,"1.03 µM [falling, partial curve]"
CSCCC(NC(=O)CCC(=O)OCC(=O)[C@@]1(O)CCC2[C@@H]3CCC4=CC(=O)C=C[C@]4(C)C3[C@@H](O)C[C@@]21C)C(=O)O (stereo not given in full),-16.3,,
O=C(c1ccc(CN2CCOCC2)cc1)N1CCN(c2ccccc2F)CC1,,,"18.4 µM [rising, partial curve]"
Cc1sc2nc(CSC(C)C(=O)Nc3ccccn3)[nH]c(=O)c2c1C (stereo not given),2.32,,"14.6 µM [falling, single point]"
CCCNC(=S)N(Cc1cc2cc(C)ccc2n2nnnc12)CC(C)(C)CN(C)C,,,"0.58 µM [rising, single point]"
CCOC(=O)Nc1ccc2c(CN3CCN(S(=O)(=O)c4ccc(C(C)C)cc4)CC3)cc(=O)oc2c1,9.92,,"10.3 µM [rising, partial curve, poor fit]"
CC1CCCCC1NC(=O)COC(=O)Cc1ccc(Br)cc1 (stereo not given),-1.89,,
CCN(C(=O)C1CCCCC1)c1nnc(-c2cccnc2)s1,0.769,,
O=C(NCCc1ccc2c(c1)OCO2)C1CCN(S(=O)(=O)c2ccc(Cl)cc2)CC1,16.1,,"0.82 µM [rising, full curve, poor fit]"
CCn1c(=NC(=O)CS(=O)(=O)c2ccc(F)cc2)sc2cccc(OC)c21,-0.693,"0.731 µM [rising, full curve, poor fit]",
Cc1nc2ccccc2cc1C(=O)NCc1ccco1,45.3,"16.4 µM [rising, single point]",
CC(C)(C)NC(=O)c1ccc2nccnc2c1,16.7,,"18.4 µM [rising, single point]"
NC(=O)CCc1c[nH]c2ccccc12,,"0.103 µM [rising, full curve, poor fit]",
CCC(C)C(NC=C1C(=O)OC(C)(C)OC1=O)C(=O)O (stereo not given),-46.8,"2.31 µM [falling, full curve]","25.9 µM [falling, partial curve]"
COc1ccc(CNC(=O)COC(=O)CN2C(=O)COc3ccccc32)cc1,65,"14.6 µM [rising, partial curve]",
COc1ccc(CCN(C)C(=O)c2c(C)nn(CC(C)C)c2Cl)cc1OC,-1.08,,"29.1 µM [rising, single point]"

# Looked up by structure from above, three records:
SMILES,cell number change [%],AC50 [1],AC50 [2]
CCn1c(=NC(=O)CS(=O)(=O)c2ccc(F)cc2)sc2cccc(OC)c21,-0.693,"0.731 µM [rising, full curve, poor fit]",
COc1ccc(CCN(C)C(=O)c2c(C)nn(CC(C)C)c2Cl)cc1OC,-1.08,,"29.1 µM [rising, single point]"
CC(C)(C)NC(=O)c1ccc2nccnc2c1,16.7,,"18.4 µM [rising, single point]"

# (next part)

SMILES,cell number change [%],AC50 [1],AC50 [2]
Cc1cccc(C)c1NC(=O)CNc1ncnc2sc(C)c(C)c12,9.26,,"0.103 µM [rising, full curve, poor fit]"
O=C(NC1CCCCC1)c1cc(S(=O)(=O)N2CCCCC2)ccc1N1CCOCC1,2.59,,"0.00461 µM [falling, full curve, poor fit]"
CC1(C)CC(=O)c2c(Cc3ccccc3)noc2C1,25.5,"0.366 µM [rising, full curve]",
CCOc1ccc(-c2nnc(N3CCOCC3)c3ccccc23)cc1,21.1,"6.51 µM [rising, single point]",
O=C(CSc1cccc2cccnc12)N/N=C/c1cccc(O)c1,,,"20.6 µM [rising, single point]"
CC1Cc2ccccc2N1C1=CC(=O)CC(C)(C)C1 (stereo not given),-6.69,,
Cc1cc(OCC(=O)OCC(=O)N(C)C2CCS(=O)(=O)C2)ccc1Cl (stereo not given),10.8,,
CCN(C(=O)CSc1nncn1-c1ccccc1)c1c(N)n(Cc2ccccc2)c(=O)[nH]c1=O,,,"0.82 µM [rising, full curve, poor fit]"
Cc1cc(NC(=O)CCC(=O)N(CC(=O)NC2CCCC2)c2cccc(F)c2)no1,-10,,"6.51 µM [rising, partial curve]"
O=c1[nH]cc(COCC(F)CCl)c(=O)[nH]1 (stereo not given),0.106,,"0.164 µM [rising, full curve, poor fit]"
Cc1cc(C)cc(NC(=O)Nc2ccc3c(c2)N(C)C(=O)CS3)c1,14.4,,
CCn1cc(C(=O)NCCCN(CC(C)C)CC(C)C)c(=O)c2cc(S(=O)(=O)N(C)C3CCCCC3)ccc21,5.6,,"29.1 µM [rising, single point]"
CCOC(=O)c1cccc(NS(=O)(=O)c2cnc[nH]2)c1,-1.28,,"29.1 µM [falling, single point]"
CCN(c1ccccc1)S(=O)(=O)c1ccc(Cl)c(NC(=O)COC(=O)c2ccc[nH]c2=O)c1,22.6,"3.66 µM [rising, full curve, poor fit]","0.291 µM [rising, full curve, poor fit]"
CC(=O)Nc1ccc(NC(=O)C2CC(=O)N=C(N)S2)cc1 (stereo not given),-6.73,,"0.103 µM [rising, full curve, poor fit]"
C=CCn1cc(/C=N/Nc2nc3ccccc3[nH]2)c2ccccc21,-42.1,"20.6 µM [falling, single point]","18.4 µM [falling, single point]"
Cc1ccc(C)c(N(C(=O)c2csnn2)C(C(=O)NC2CCCC2)c2cccnc2)c1 (stereo not given),13.3,,"0.259 µM [rising, partial curve, poor fit]"
COc1ccc(NC(=O)CN(c2ccccc2F)S(=O)(=O)c2ccc(C)cc2)c(OC)c1,49.2,"18.4 µM [rising, single point]",
